Laboratory results as given in paper PMC3258255.
These are yes or no findings as the source states them, for the method shown. In cells and extracts the contact can be indirect. Some entries that bind do so weakly or less than the wild type. For some assays here: Sequences can lack the tags named with a protein.

Sequences of proteins named here, by UniProt entry; tags and fusion partners are left off.
UniProt P28482: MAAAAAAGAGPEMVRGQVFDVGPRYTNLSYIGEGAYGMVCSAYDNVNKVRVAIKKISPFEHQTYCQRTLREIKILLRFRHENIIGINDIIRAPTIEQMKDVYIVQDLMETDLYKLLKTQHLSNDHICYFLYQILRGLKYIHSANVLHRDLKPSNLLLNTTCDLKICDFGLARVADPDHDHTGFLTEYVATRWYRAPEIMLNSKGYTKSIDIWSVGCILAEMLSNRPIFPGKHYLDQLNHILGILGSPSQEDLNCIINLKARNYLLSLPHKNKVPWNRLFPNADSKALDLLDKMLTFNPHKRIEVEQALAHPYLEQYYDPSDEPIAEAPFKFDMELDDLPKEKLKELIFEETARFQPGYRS
UniProt P12270: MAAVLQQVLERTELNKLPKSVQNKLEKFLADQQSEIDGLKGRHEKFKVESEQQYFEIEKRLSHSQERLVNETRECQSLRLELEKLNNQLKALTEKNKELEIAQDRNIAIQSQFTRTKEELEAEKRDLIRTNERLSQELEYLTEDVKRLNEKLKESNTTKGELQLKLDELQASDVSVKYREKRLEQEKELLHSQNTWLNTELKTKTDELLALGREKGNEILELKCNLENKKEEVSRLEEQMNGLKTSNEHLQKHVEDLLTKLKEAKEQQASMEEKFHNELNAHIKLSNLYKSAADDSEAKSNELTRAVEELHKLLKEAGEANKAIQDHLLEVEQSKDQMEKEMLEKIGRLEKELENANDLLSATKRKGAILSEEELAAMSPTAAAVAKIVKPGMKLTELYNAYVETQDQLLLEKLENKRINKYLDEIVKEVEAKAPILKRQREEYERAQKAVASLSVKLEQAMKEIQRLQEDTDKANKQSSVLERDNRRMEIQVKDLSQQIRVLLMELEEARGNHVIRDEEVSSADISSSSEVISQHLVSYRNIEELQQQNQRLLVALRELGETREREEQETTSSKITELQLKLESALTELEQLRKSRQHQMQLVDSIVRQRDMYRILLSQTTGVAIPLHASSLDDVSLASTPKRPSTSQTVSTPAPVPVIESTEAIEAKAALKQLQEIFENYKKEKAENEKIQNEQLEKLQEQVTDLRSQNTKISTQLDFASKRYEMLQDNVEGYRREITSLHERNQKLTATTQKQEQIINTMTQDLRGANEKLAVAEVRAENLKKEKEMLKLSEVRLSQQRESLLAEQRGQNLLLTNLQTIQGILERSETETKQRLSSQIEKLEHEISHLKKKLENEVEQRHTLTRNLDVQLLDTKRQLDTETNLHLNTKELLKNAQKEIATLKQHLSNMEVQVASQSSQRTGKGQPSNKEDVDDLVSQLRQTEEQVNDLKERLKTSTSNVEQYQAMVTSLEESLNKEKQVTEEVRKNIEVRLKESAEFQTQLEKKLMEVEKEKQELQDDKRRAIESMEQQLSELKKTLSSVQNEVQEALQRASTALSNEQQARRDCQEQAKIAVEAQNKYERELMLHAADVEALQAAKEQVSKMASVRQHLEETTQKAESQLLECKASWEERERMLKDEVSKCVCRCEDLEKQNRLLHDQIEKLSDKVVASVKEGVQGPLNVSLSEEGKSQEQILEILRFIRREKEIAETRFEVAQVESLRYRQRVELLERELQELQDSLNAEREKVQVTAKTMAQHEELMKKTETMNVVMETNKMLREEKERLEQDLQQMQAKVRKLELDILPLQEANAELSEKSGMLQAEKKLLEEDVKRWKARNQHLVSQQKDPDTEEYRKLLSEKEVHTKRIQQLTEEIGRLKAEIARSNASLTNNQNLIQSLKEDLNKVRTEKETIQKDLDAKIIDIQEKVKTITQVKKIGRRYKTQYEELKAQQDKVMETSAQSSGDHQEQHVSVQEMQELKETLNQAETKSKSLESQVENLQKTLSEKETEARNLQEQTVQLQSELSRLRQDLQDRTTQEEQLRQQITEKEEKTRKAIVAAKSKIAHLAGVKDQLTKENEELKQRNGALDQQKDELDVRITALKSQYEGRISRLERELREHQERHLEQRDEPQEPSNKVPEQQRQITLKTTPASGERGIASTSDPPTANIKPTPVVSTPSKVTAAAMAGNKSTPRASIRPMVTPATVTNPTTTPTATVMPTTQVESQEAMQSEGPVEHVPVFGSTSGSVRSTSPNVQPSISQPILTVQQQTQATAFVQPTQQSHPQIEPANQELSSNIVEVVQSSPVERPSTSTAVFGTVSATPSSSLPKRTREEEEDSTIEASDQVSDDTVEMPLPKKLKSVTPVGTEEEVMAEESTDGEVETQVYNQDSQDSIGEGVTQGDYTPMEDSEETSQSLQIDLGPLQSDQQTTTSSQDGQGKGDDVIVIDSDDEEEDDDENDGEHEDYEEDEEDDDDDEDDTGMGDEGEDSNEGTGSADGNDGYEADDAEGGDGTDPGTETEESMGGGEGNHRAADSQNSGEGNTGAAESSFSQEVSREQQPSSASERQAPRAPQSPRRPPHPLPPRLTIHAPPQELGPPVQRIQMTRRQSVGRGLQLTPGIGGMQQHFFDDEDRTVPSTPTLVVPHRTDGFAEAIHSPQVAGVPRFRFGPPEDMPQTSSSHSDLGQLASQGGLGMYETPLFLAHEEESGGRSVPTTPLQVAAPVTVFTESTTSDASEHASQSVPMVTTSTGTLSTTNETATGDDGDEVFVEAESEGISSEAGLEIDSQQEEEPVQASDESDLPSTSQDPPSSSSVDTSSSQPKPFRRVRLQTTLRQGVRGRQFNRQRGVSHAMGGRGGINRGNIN

Assays:
HA-ERK2 = HA-ERK2 (UniProt P28482); test: co-IP; cells transfected with HA-tagged constructs; 24 hours post transfection lysed, lysates immunoprecipitated with HA-antibodies; immunoblots probed with anti-HA and anti-Tpr antibodies
HA-Nxt/p15 = biological target: T1, HA-Nxt/p15 (UniProt Q9UKK6); test: as above
T1 sequence: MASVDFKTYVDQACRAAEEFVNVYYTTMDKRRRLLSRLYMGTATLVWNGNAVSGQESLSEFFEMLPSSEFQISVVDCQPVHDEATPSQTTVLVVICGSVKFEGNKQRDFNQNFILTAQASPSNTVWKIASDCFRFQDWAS

## Nucleoporin Tpr (endogenous) (from UniProt P12270 1-2363)
HA-ERK2
  binding: binds
HA-Nxt/p15
  binding: no binding
